± gives the standard deviation of the averaged measurements. The effect of the compound repeats well; differences between the knockouts mostly do not. Where a SMILES comes first, the peptide text is derived from it. The star is where a group is joined. Cbz = O=C(OCc1ccccc1)*
System: ZR-75-1
Experiment: relative cell number vs DMSO control (72 h) (% of DMSO); higher = less growth inhibition (more cells)
Experimental: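 QMAP-Seq: a pool of 5 breast cancer cell lines (ZR-75-1, SKBR3, HCC-38, MDA-MB-231, BT-20), each carrying 12 doxycycline-inducible Cas9 sgRNA perturbations (11 knockouts plus non-targeting sgNT), was treated with compounds for 72 h at four 10-fold doses (10 nM-10 uM or 1 nM-1 uM range). Barcodes were amplified and sequenced, and cell number was interpolated from 293T spike-in standard curves. The result is expressed as % of the median of DMSO wells. Two biological replicates.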

[1] = sgRNA knockout: sgATF3, 1000 nM
[2] = sgRNA knockout: sgATF3, 10000 nM
[3] = sgRNA knockout: sgATF4, 1000 nM
[4] = sgRNA knockout: sgATF4, 10000 nM
[5] = sgRNA knockout: sgATF6, 1000 nM
[6] = sgRNA knockout: sgATF6, 10000 nM
[7] = sgRNA knockout: sgATG7, 1000 nM
[8] = sgRNA knockout: sgATG7, 10000 nM
[9] = sgRNA knockout: sgERN1, 1000 nM
[10] = sgRNA knockout: sgERN1, 10000 nM
[11] = sgRNA knockout: sgHSF2, 1000 nM
[12] = sgRNA knockout: sgHSF2, 10000 nM
[13] = sgRNA knockout: sgNFE2L2, 10 nM
[14] = sgRNA knockout: sgNFE2L2, 100 nM
[15] = sgRNA knockout: sgNFE2L2, 1000 nM
[16] = sgRNA knockout: sgNFE2L2, 10000 nM
[17] = sgRNA knockout: sgSLC35F2, 10 nM
[18] = sgRNA knockout: sgSLC35F2, 100 nM
[19] = sgRNA knockout: sgSLC35F2, 1000 nM
[20] = sgRNA knockout: sgSLC35F2, 10000 nM
[21] = sgRNA knockout: sgXBP1, 1000 nM
[22] = sgRNA knockout: sgXBP1, 10000 nM

Row | Compound | relative cell number (sgRNA knockout: sgATF3, 10 nM) | relative cell number (sgRNA knockout: sgATF3, 100 nM) | relative cell number [1] | relative cell number (sgRNA knockout: sgATF4, 10 nM) | relative cell number (sgRNA knockout: sgATF4, 100 nM) | relative cell number [3] | relative cell number (sgRNA knockout: sgATF6, 10 nM) | relative cell number (sgRNA knockout: sgATF6, 100 nM) | relative cell number [5] | relative cell number (sgRNA knockout: sgATG7, 10 nM) | relative cell number (sgRNA knockout: sgATG7, 100 nM) | relative cell number [7] | relative cell number (sgRNA knockout: sgERN1, 10 nM) | relative cell number (sgRNA knockout: sgERN1, 100 nM) | relative cell number [9] | relative cell number (sgRNA knockout: sgHSF2, 10 nM) | relative cell number (sgRNA knockout: sgHSF2, 100 nM) | relative cell number [11] | relative cell number [13] | relative cell number [14] | further results
1 | Cc1ccc(C(=O)Cn2c3c(sc2=N)CCCC3)cc1 [PifithrinAlpha] | 107 ± 36 | 66.9 ± 11 | 86.7 ± 10 | 98.3 ± 21 | 111 ± 4 | 112 ± 12 | 94.7 ± 49 | 86.2 ± 6.6 | 99.1 ± 44 | 114 ± 24 | 88.6 ± 8.2 | 80.8 ± 9.6 | 110 ± 9.3 | 103 ± 6.3 | 99.8 ± 21 | 84.6 ± 14 | 105 ± 4.8 | 74.9 ± 10 | 95 ± 2.5 | 96 ± 1.2 | relative cell number [2]: 45.2 ± 11; relative cell number [4]: 55.8 ± 20; relative cell number [6]: 45.4 ± 22; relative cell number [8]: 59.6 ± 1.1; relative cell number [10]: 51.8 ± 8.6; relative cell number [12]: 47.33 ± 0.46; relative cell number [15]: 88.4 ± 4.7; relative cell number [16]: 49.7 ± 15; relative cell number [17]: 82.6 ± 3.3; relative cell number [18]: 72.4 ± 56; relative cell number [19]: 81.4 ± 20; relative cell number [20]: 34.1 ± 28; relative cell number (sgRNA knockout: sgXBP1, 10 nM): 84.88 ± 0.15; relative cell number (sgRNA knockout: sgXBP1, 100 nM): 108 ± 4.1; relative cell number [21]: 81.5 ± 22; relative cell number [22]: 49.4 ± 5.9
2 | COC(=O)/C=C/C(=O)OC [DimethylFumarate] | 97.2 ± 22 | 95.7 ± 15 | 93.3 ± 21 | 112 ± 9.1 | 83.5 ± 6.2 | 99.1 ± 3.6 | 97 ± 15 | 73.5 ± 37 | 122 ± 13 | 101 ± 56 | 88.2 ± 6.7 | 107 ± 8.4 | 79.1 ± 14 | 79.6 ± 14 | 115 ± 20 | 97.6 ± 37 | 98.6 ± 1.8 | 97 ± 2.6 | 109 ± 11 | 96.2 ± 5 | relative cell number [2]: 95.1 ± 39; relative cell number [4]: 89.4 ± 18; relative cell number [6]: 111 ± 4.6; relative cell number [8]: 77.1 ± 7.3; relative cell number [10]: 92 ± 3.4; relative cell number [12]: 86.9 ± 13; relative cell number [15]: 115 ± 31; relative cell number [16]: 107 ± 7.1; relative cell number [17]: 64 ± 6.4; relative cell number [18]: 118 ± 59; relative cell number [19]: 122 ± 26; relative cell number [20]: 52.4 ± 47; relative cell number (sgRNA knockout: sgXBP1, 10 nM): 86 ± 21; relative cell number (sgRNA knockout: sgXBP1, 100 nM): 90.5 ± 15; relative cell number [21]: 105 ± 16; relative cell number [22]: 98.6 ± 3.7
3 | CC(C)n1cnc2c(NCCc3ccc(O)cc3)nc(-c3csc4ccccc34)nc21 [StemRegenin1] | 91.7 ± 1.2 | 164 ± 26 | 128 ± 55 | 93.8 ± 14 | 167 ± 60 | 89.7 ± 4.3 | 82.3 ± 32 | 119 ± 31 | 88.9 ± 38 | 97.9 ± 17 | 117 ± 4.5 | 94.2 ± 2.6 | 89.9 ± 8.3 | 131 ± 9.7 | 95.2 ± 23 | 94.6 ± 14 | 127 ± 11 | 128 ± 15 | 101 ± 30 | 139 ± 11 | relative cell number [2]: 38.2 ± 7.5; relative cell number [4]: 38.8 ± 4.9; relative cell number [6]: 60.9 ± 9.4; relative cell number [8]: 50.3 ± 1.3; relative cell number [10]: 52.7 ± 9.5; relative cell number [12]: 55.27 ± 0.22; relative cell number [15]: 79.9 ± 2.7; relative cell number [16]: 38.8 ± 2.9; relative cell number [17]: 125 ± 53; relative cell number [18]: 114 ± 44; relative cell number [19]: 120 ± 110; relative cell number [20]: 34 ± 6.2; relative cell number (sgRNA knockout: sgXBP1, 10 nM): 90 ± 6.7; relative cell number (sgRNA knockout: sgXBP1, 100 nM): 122 ± 8.1; relative cell number [21]: 109 ± 2; relative cell number [22]: 39.4 ± 7
4 | CC(C)C[C@@H](C=O)NC(=O)[C@H](CC(C)C)NC(=O)[C@H](CC(C)C)NC(=O)OCc1ccccc1 [MG132] (Cbz-Leu-Leu-Leu-aldehyde) | 103 ± 14 | 103 ± 28 | 28.8 ± 12 | 64.1 ± 18 | 101 ± 20 | 34.4 ± 12 | 89.7 ± 43 | 67.7 ± 9.3 | 36.7 ± 7.6 | 78.37 ± 0.65 | 131 ± 26 | 24.8 ± 1.5 | 108 ± 21 | 121 ± 19 | 32.3 ± 6.9 | 113.2 ± 1.1 | 129 ± 23 | 27 ± 12 | 107.2 ± 0.38 | 96.6 ± 37 | relative cell number [2]: 11.4 ± 3.6; relative cell number [4]: 5.7 ± 3.7; relative cell number [6]: 10.2 ± 5.1; relative cell number [8]: 11.5 ± 1.6; relative cell number [10]: 11 ± 0.72; relative cell number [12]: 8.95 ± 0.53; relative cell number [15]: 25.4 ± 6.2; relative cell number [16]: 10.4 ± 0.86; relative cell number [17]: 88 ± 17; relative cell number [18]: 109 ± 16; relative cell number [19]: 15.2 ± 3.4; relative cell number [20]: 5.34 ± 4.5; relative cell number (sgRNA knockout: sgXBP1, 10 nM): 80.8 ± 19; relative cell number (sgRNA knockout: sgXBP1, 100 nM): 107.2 ± 0.13; relative cell number [21]: 23.9 ± 2.5; relative cell number [22]: 9.53 ± 0.51
5 | CC(C)(C)c1nc(-c2cccc(NS(=O)(=O)c3c(F)cccc3F)c2F)c(-c2ccnc(N)n2)s1 [Dabrafenib] | 159 ± 16 | 103 ± 22 | 97.3 ± 15 | 141 ± 26 | 97.9 ± 14 | 84.1 ± 7.6 | 109 ± 4 | 146 ± 27 | 92.4 ± 51 | 140 ± 20 | 117 ± 36 | 90.5 ± 13 | 149 ± 54 | 117 ± 7.4 | 94.9 ± 25 | 139 ± 22 | 123 ± 3 | 106 ± 5.7 | 142 ± 19 | 101.4 ± 0.55 | relative cell number [2]: 104 ± 11; relative cell number [4]: 83 ± 24; relative cell number [6]: 77.4 ± 6.2; relative cell number [8]: 106 ± 33; relative cell number [10]: 76.3 ± 3; relative cell number [12]: 109 ± 33; relative cell number [15]: 145 ± 6.3; relative cell number [16]: 96.5 ± 1.4; relative cell number [17]: 101 ± 40; relative cell number [18]: 135 ± 31; relative cell number [19]: 95 ± 45; relative cell number [20]: 110 ± 26; relative cell number (sgRNA knockout: sgXBP1, 10 nM): 155 ± 14; relative cell number (sgRNA knockout: sgXBP1, 100 nM): 101.2 ± 1; relative cell number [21]: 120 ± 20; relative cell number [22]: 102 ± 2
6 | CO[C@H]1C[C@@H]2CC[C@@H](C)[C@@](O)(O2)C(=O)C(=O)N2CCCC[C@H]2C(=O)O[C@H]([C@H](C)C[C@@H]2CC[C@@H](OCCO)[C@H](OC)C2)CC(=O)[C@H](C)/C=C(\C)[C@@H](O)[C@@H](OC)C(=O)[C@H](C)C[C@H](C)/C=C/C=C/C=C/1C [Everolimus] | 70.2 ± 40 | 67.7 ± 14 | 75.2 ± 2.2 | 56.8 ± 9.8 | 61.5 ± 29 | 77.1 ± 2.5 | 54.9 ± 19 | 64.2 ± 9.9 | 81.3 ± 36 | 74 ± 7.5 | 50.9 ± 0.55 | 70.3 ± 18 | 60.4 ± 9.3 | 67.4 ± 7.4 | 76.4 ± 3.2 | 72.6 ± 10 | 54.9 ± 10 | 58.4 ± 13 | 73.1 ± 7.9 | 55.3 ± 9.4 | relative cell number (sgRNA knockout: sgATF3, 1 nM): 74 ± 19; relative cell number (sgRNA knockout: sgATF4, 1 nM): 84.4 ± 21; relative cell number (sgRNA knockout: sgATF6, 1 nM): 72.3 ± 21; relative cell number (sgRNA knockout: sgATG7, 1 nM): 82.8 ± 14; relative cell number (sgRNA knockout: sgERN1, 1 nM): 66.7 ± 6.3; relative cell number (sgRNA knockout: sgHSF2, 1 nM): 70.9 ± 22; relative cell number (sgRNA knockout: sgNFE2L2, 1 nM): 82 ± 48; relative cell number [15]: 75.42 ± 0.18; relative cell number (sgRNA knockout: sgSLC35F2, 1 nM): 82.8 ± 44; relative cell number [17]: 37 ± 33; relative cell number [18]: 79.2 ± 6.6; relative cell number [19]: 41.6 ± 1.5; relative cell number (sgRNA knockout: sgXBP1, 1 nM): 74.2 ± 28; relative cell number (sgRNA knockout: sgXBP1, 10 nM): 53.4 ± 9; relative cell number (sgRNA knockout: sgXBP1, 100 nM): 66 ± 12; relative cell number [21]: 76.6 ± 14
7 | Nc1nc(OCc2cc(Br)cs2)c2[nH]cnc2n1 [Lomeguatrib] | 89.3 ± 3.7 | 115 ± 3.2 | 108 ± 32 | 97.7 ± 13 | 119 ± 34 | 124 ± 8.6 | 129 ± 6.4 | 107 ± 20 | 145 ± 26 | 120 ± 28 | 102 ± 6.5 | 112 ± 20 | 91 ± 26 | 122 ± 19 | 89.9 ± 5 | 108 ± 16 | 95.4 ± 1.4 | 84.3 ± 5 | 110 ± 52 | 96 ± 7.5 | relative cell number [2]: 93.9 ± 14; relative cell number [4]: 73.8 ± 8; relative cell number [6]: 105 ± 63; relative cell number [8]: 110.9 ± 0.61; relative cell number [10]: 102 ± 37; relative cell number [12]: 103 ± 2.1; relative cell number [15]: 96.6 ± 29; relative cell number [16]: 83.4 ± 12; relative cell number [17]: 90.2 ± 57; relative cell number [18]: 128 ± 46; relative cell number [19]: 74.5 ± 12; relative cell number [20]: 92.8 ± 1.7; relative cell number (sgRNA knockout: sgXBP1, 10 nM): 102 ± 32; relative cell number (sgRNA knockout: sgXBP1, 100 nM): 96.5 ± 15; relative cell number [21]: 82.2 ± 11; relative cell number [22]: 84.3 ± 2.9

— the supplement of paper PMC7661543
